Assay results reported in US9657064B2, “Cell penetrating peptides” (UNIVERSITE DE GENEVE, priority 2012, dated 2017).
Some results were stated once for a whole list of compounds, not compound by compound.

Tested on: ovalbumin-specific CD8+ T cells derived from spleens of OT1 transgenic mice
Experiment: MHC class I restricted presentation: proliferation of OT1 CD8+ T cells co-cultured with dendritic cells loaded with fusion polypeptide (CFSE dilution)
Format: cell-based
Details: for T cells had proliferated, based on CFSE dilution: dendritic cells loaded 4 h with 0.3 μM fusion polypeptide, matured overnight with LPS, 5 days co-incubation with OT1 T cells; for viability of cells in the cultures: same cultures, 5 days co-incubation

Sequence: KRYKNRVASRKSRAKFKEQLESIINFEKLTEWT (CPP1-OVA fusion polypeptide) [construct 1]
- T cells had proliferated, based on CFSE dilution: 93-96%
- viability of cells in the cultures: 69-75%

Sequence: KRYKNRVASRKSRAKFKQLLQHYREVAAAKEQLESIINFEKLTEWT [construct 2]
- T cells had proliferated, based on CFSE dilution: 93-96%
- viability of cells in the cultures: 69-75%
